# Measurements reported in PubChem BioAssay AID2685 (National Center for Advancing Translational Sciences (NCATS), 2010).
# The list shows a part of the results. These are further read-outs of the screen, such as a control signal, another cell line or another target. No call is given for them. The list favours compounds with an active or inconclusive main result. The note in brackets gives the kind of curve behind each potency; many fits are weak.
# Experiment: qHTS Assay for Lipid Storage Modulators in Drosophila S3 Cells;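 on cell number change: cells counted by Cell Tracker Red CMTPX staining in the red channel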
# Details: BODIPY lipid droplet fluorescence, 18-24 h; for cell number change: measured here: cell count max response, cells fed with added oleic acid
# Procedure, shortened: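 Laser-scanning cytometry quantifies lipid droplet accumulation (500–530 nm total intensity; droplet/cell object ratio) in oleic acid-fed (400 uM added) Drosophila S3 cells treated with a concentration series. 20 uM Triacsin C defined 100% inhibition.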
# [1] = measured here: cell number channel AC50, cells fed with added oleic acid
# [2] = measured here: lipid fluorescence (Fed channel) AC50, cells fed with added oleic acid
Structure (SMILES),cell number change [%],AC50 [1],AC50 [2]
Cc1nc(SCC(=O)N(CC(C)C)C2CCS(=O)(=O)C2)c(C#N)c(C)c1C (centres undefined),55.8,"18.4 µM [rising, single point]",
CN(CC(=O)Nc1ccc(F)cc1)C(=O)COC(=O)CNC(=O)c1sc2ccccc2c1Cl,-19.2,"1.84 µM [falling, partial curve, poor fit]",
S=C(NCC(c1cccnc1)N1CCOCC1)NC1CCCCC1 (centres undefined),-12.9,"6.51 µM [falling, single point]",
COc1ccccc1NC(=S)NC(=O)CC(C)C,-12.7,,"29.1 µM [falling, single point]"
CCOC(=O)c1cccc(NC(=O)CS(=O)(=O)Cc2nc(-c3cccc(OC)c3)oc2C)c1,,"2.91 µM [rising, single point]","6.51 µM [rising, single point]"
CCCNc1c(N)n(-c2ccccc2)c(=O)[nH]c1=O,-11.3,"5.17 µM [falling, single point]","0.00517 µM [rising, full curve, poor fit]"
Nc1nc(NCc2ccco2)nc(N2CCCC2)c1[N+](=O)[O-],12.7,"1.46 µM [rising, partial curve, poor fit]","2.06 µM [rising, partial curve, poor fit]"
Cc1cc(C(=O)NCc2ccco2)sc1C,0.907,,"0.00461 µM [falling, full curve, poor fit]"
COc1cc2c(cc1OC)/C(=C/C(=O)c1ccccc1F)NCC2,,,"2.91 µM [rising, single point]"
O=C(NCc1ccccn1)C(=O)NCC1OCCN1S(=O)(=O)c1ccc(Br)cc1 (centres undefined),29.7,,
Cc1ccc(-n2c(SCC(=O)N3CCOCC3)nnc2-c2ccncc2)cc1,,,"0.82 µM [falling, full curve]"
O=C(COC(=O)C1CCN(C(=O)Nc2ccccc2)CC1)NCC(F)(F)F,2.26,"0.82 µM [falling, full curve]","0.82 µM [falling, full curve]"
CCN(CC(=O)Nc1c(F)cccc1F)C(=O)CN1C(=O)NC2(CCCC2)C1=O,-38.1,"3.66 µM [falling, full curve]","4.11 µM [falling, full curve]"
O=C(c1ccc(-c2ccccc2)cc1)N1CCN(c2ccccc2F)CC1,-0.73,"0.00411 µM [rising, full curve, poor fit]",
Cc1cccc(Cn2c(=O)n(Cc3ccco3)c(=O)c3ccccc32)c1,,,"11.6 µM [rising, partial curve]"
CCCn1c(C)cc(C(=O)CSc2nc3ccccc3c(=O)n2Cc2ccco2)c1C,133,"29.1 µM [rising, single point]",
O=C(O)CSc1nnc(-c2ccc3c(c2)OCO3)o1,33.5,"16.4 µM [rising, single point]",
COc1ccc(N2CCN(C(=O)COC(=O)CCOc3cc(C)ccc3C)CC2)cc1,-30.8,,"0.0651 µM [falling, full curve]"

# 2 successive records from above, for reference:
Structure (SMILES),cell number change [%],AC50 [1],AC50 [2]
Nc1nc(NCc2ccco2)nc(N2CCCC2)c1[N+](=O)[O-],12.7,"1.46 µM [rising, partial curve, poor fit]","2.06 µM [rising, partial curve, poor fit]"
Cc1cc(C(=O)NCc2ccco2)sc1C,0.907,,"0.00461 µM [falling, full curve, poor fit]"

# Next part:

Structure (SMILES),cell number change [%],AC50 [1],AC50 [2]
Cc1ccc(S(=O)(=O)Nc2ccc(S(=O)(=O)N3CCOCC3)cc2)cc1[N+](=O)[O-],-6.67,,
Cc1ccccc1OCC(O)Cn1c(=N)n(CCN2CCOCC2)c2ccccc21 (centres undefined),-24.1,,"0.146 µM [falling, full curve, poor fit]"
Cc1ccc(OCC(=O)c2cc(C)n(-c3cc(C)on3)c2C)c([N+](=O)[O-])n1,-50,"2.31 µM [rising, partial curve]",
CCN1CCN(C(=S)Nc2ccc(Cl)cc2Cl)CC1,-100,"25.9 µM [falling, partial curve, poor fit]",
CCOc1ccc(NC(=O)CN(C)C(=O)CCN2C(=O)C3CC=CCC3C2=O)cc1OCC (centres undefined),-16.1,"0.00461 µM [falling, full curve, poor fit]","0.00517 µM [falling, full curve, poor fit]"
CCOC(=O)c1sc(Nc2ccc(C)cc2C)nc1C,-21.1,,"2.06 µM [rising, partial curve]"
O=C(N/N=C1/CC2C=CCC12)c1ccc(Br)o1 (centres undefined),10.9,,"0.206 µM [rising, full curve, poor fit]"
CCCCCCCC(=O)Nc1cc(C(=O)NCCC)ccc1N1CCC2(CC1)CC(c1cccc(Br)c1)=NO2,-3.56,"0.0058 µM [falling, full curve, poor fit]","0.00517 µM [falling, full curve, poor fit]"
O=S(=O)(NC1CCCCC1N1CCC(O)CC1)c1ccc(Cl)cc1 (centres undefined),-6.94,,"29.1 µM [falling, single point]"
COC(=O)C(C(C)=O)C1=C/C(=N\S(=O)(=O)c2ccc(C)cc2)c2ccccc2C1=O (centres undefined),102,"23.1 µM [rising, partial curve]","0.0517 µM [rising, full curve, poor fit]"
CCOc1ccc(S(=O)(=O)N2CCOCC2)cc1NC(=O)CN1C(=O)NC2(CCCC2)C1=O,13.7,,"13 µM [rising, single point]"
CCC(NC(=O)c1ccc2nc(Cc3ccc(OC)cc3)oc2c1)c1ccncc1 (centres undefined),,,"3.66 µM [falling, partial curve]"
O=S(=O)(Nc1cccc2ccccc12)c1ccccc1F,15.1,,
CCOc1ccccc1N(C(=O)Cn1nnnc1-c1ccc(C)o1)C(CC)C(=O)NC(C)(C)C (centres undefined),-27.5,,"29.1 µM [falling, single point]"
CC[C@H](C)/C=C(C)/C=C/C1=CC2=CC(=O)[C@]3(C)OC(=O)[C@@H](C(C)=O)[C@@H]3C2=CO1,-8.67,,"16.4 µM [falling, single point]"
Cc1ccc(S(=O)(=O)CCSc2cccc(C(=O)O)c2)cc1,,,"6.51 µM [rising, single point]"
Cc1cc(F)c(F)c(C(=O)NC2CC2)c1Cl,,,"1.3 µM [falling, full curve]"
CCOC(=O)c1ccc(N(C(=O)CNC(=O)c2ccco2)C(C(=O)NCC2CCCO2)c2ccc(OC)c(OC)c2)cc1 (centres undefined),-13.5,,
